# Structures can show the parent of a compound that is named as a salt. Out of some 2,100 compounds screened, about 180 (8.6%) showed an effect of 50% or more. This is one part of the list.
# System: MOLM1 and UCSD/AML1 (averaged)
# Test: cell viability relative to DMSO control (POC); higher = less growth inhibition
# Conditions: 1 µM; 72 h
# Method: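 Primary viability screen in the 3q26 EVI1-high AML cell lines MOLM1 and UCSD/AML1 (1.5e3 cells/well, 384-well), compounds at 1 uM for 72 h. ATP CellTiter-Glo read-out given as percent of viable cells over DMSO control (POC), averaged over duplicates. DMSO was the negative control and 5 uM etoposide the positive control. This mapping covers the MicroSource Spectrum and Selleck anticancer libraries (drug names).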
row,Structure (SMILES),cell viability
1,C[C@]12CC[C@@H]3c4ccc(O)cc4CC[C@H]3[C@@H]1C[C@@H](O)[C@@H]2O,98.6%
2,CCCCC(=O)O[C@]1(C(=O)CO)CC[C@H]2[C@@H]3CCC4=CC(=O)CC[C@]4(C)[C@H]3[C@@H](O)C[C@@]21C,81.2%
3,CCc1cccc2c3c([nH]c12)C(CC)(CC(=O)O)OCC3 (stereo not drawn),96.5%
4,Cc1noc(NS(=O)(=O)c2ccc(N)cc2)c1C,111%
5,OCCOCCN1CCN(C(c2ccccc2)c2ccc(Cl)cc2)CC1 (stereo not drawn),105%
6,Cc1ccccc1N1C(=O)c2cc(S(N)(=O)=O)c(Cl)cc2NC1C (stereo not drawn),101%
7,CO[C@H]1[C@H](O)[C@@H](O)[C@H](O)[C@H](O)[C@H]1O,95.8%
8,Cc1cc(-n2c(=O)[nH]c(=O)n(C)c2=O)ccc1Oc1ccc(SC(F)(F)F)cc1,108%
9,CC(C)CCC[C@@H](C)[C@H]1CC[C@H]2[C@@H]3C(=O)C=C4C[C@@H](O)CC[C@]4(C)[C@H]3CC[C@]12C,95.7%
10,COc1ccc(-c2coc3c(OC)c(OC)cc(O)c3c2=O)cc1,101%
11,COc1ccc2[nH]c([S+]([O-])Cc3ncc(C)c(OC)c3C)nc2c1 (stereo not drawn),92.4%
12,CCCCC(CC)CN=C(N)N=C(N)NCCCCCCNC(N)=NC(N)=NCC(CC)CCCC (stereo not drawn),7.07%
13,CC(=O)Nc1ccc(O)cc1,102%
14,CC(=O)Oc1c(C)c(C)c2c(c1C)CCC(C)(CCCC(C)CCCC(C)CCCC(C)C)O2 (stereo not drawn) [alpha-TOCHOPHERYL ACETATE],104%
15,Nc1cccc2c1CN(C1CCC(=O)NC1=O)C2=O (stereo not drawn) [Lenalidomide],103%
16,C=CCSCC(N)C(=O)O (stereo not drawn),121%
17,O=c1ccc2ccc(O)c(O)c2o1,115%
18,O.O.O.O.O=C([O-])CC(O)(CC(=O)[O-])C(=O)[O-].[Li+].[Li+].[Li+],91%
19,CN1CCC(=C2c3ccccc3CC(=O)c3sccc32)CC1,88.8%
20,CCCN(CCC)C(=O)C(CCC(=O)O)NC(=O)c1ccccc1 (stereo not drawn),99.1%
21,O=C(O)CC[C@H]1CC[C@@](c2cc(F)ccc2F)(S(=O)(=O)c2ccc(Cl)cc2)CC1,71%
22,CC[C@H](CC[C@@H](C)[C@H]1CC[C@H]2[C@@H]3CC=C4C[C@@H](O)CC[C@]4(C)[C@H]3CC[C@]12C)C(C)C [beta-SITOSTEROL],104%

row,Structure (SMILES),cell viability
1,CC(C)(Sc1cc(C(C)(C)C)c(O)c(C(C)(C)C)c1)Sc1cc(C(C)(C)C)c(O)c(C(C)(C)C)c1,99.2%
2,CS(=O)(=O)CCNCc1ccc(-c2ccc3ncnc(Nc4ccc(OCc5cccc(F)c5)c(Cl)c4)c3c2)o1 [Lapatinib],64.7%
3,CS(=O)(=O)CCNCc1ccc(-c2ccc3ncnc(Nc4ccc(OCc5cccc(F)c5)c(Cl)c4)c3c2)o1 [Lapatinib Ditosylate (Tykerb)],109%
4,COc1cc(-c2coc3cc(OC)c(OC)c(OC)c3c2=O)cc(OC)c1OC,96%
5,Cn1ccnc1S,94.2%
6,Nc1c(Br)cc(Br)cc1CN[C@H]1CC[C@H](O)CC1,91.6%
7,Oc1ccc(Cl)c2cccnc12,100%
8,CC(=O)NO,101%
9,COc1ccc(-c2c(O)c3c(OC)c4c(cc3oc2=O)OC(C)(C)C=C4)cc1,93.5%
10,CN1CCCN=C1COC(=O)C(O)(c1ccccc1)C1CCCCC1 (stereo not drawn),94.5%
11,COc1cc(Nc2ncc(F)c(Nc3ccc4c(n3)NC(=O)C(C)(C)O4)n2)cc(OC)c1OC [R406(free base)],56.8%
12,CCCCCCCCCCC[C@@H](C[C@@H]1OC(=O)[C@H]1CCCCCC)OC(=O)[C@H](CC(C)C)NC=O,71%
13,CS(=O)(=O)c1cccc(CNc2nc(Nc3ccc4c(c3)CCC(=O)N4)ncc2C(F)(F)F)c1,83.3%
14,COc1cc(C/C=C/c2ccccc2)c(OC)cc1O,93.6%
15,O=C1O[C@H](CO)[C@@H](O)[C@H](O)[C@H]1O,103%
16,O=C(O)CCCN1C(=O)c2cccc3cccc(c23)C1=O,103%
17,CO[C@H]1C[C@H](O[C@H]2[C@H](C)[C@@H](O[C@@H]3O[C@H](C)C[C@H](N(C)C)[C@H]3OC(C)=O)[C@@H](C)C[C@@]3(CO3)C(=O)[C@H](C)[C@@H](OC(C)=O)[C@@H](C)[C@@H](C)OC(=O)[C@@H]2C)O[C@@H](C)[C@@H]1OC(C)=O,102%
18,CC(C)(S)[C@@H](N)C(=O)O,113%
19,CN1CCN(C2=Nc3cc(Cl)ccc3Nc3ccccc32)CC1,91.4%
20,CO[C@@H](C(=O)N1Cc2[nH]nc(NC(=O)c3ccc(N4CCN(C)CC4)cc3)c2C1)c1ccccc1,13.4%
21,C=C1C2CC[C@@]3(C)[C@H](c4ccoc4)OC(=O)C[C@]13O[C@H]1CC(O)C(C)(C)C(CC(=O)OC)[C@@]21C (stereo partly drawn) [3alpha-HYDROXY-3-DEOXYANGOLENSIC ACID METHYL ESTER],97.3%
22,COc1c(O)cc2c(-c3ccccc3)cc(=O)oc2c1OC,92.8%

row,Structure (SMILES),cell viability
1,CC(=O)O[C@H]1CC[C@]2(C)C3=C(CC[C@H]2C1(C)C)[C@]1(C)CC[C@H]([C@H](C)CCC=C(C)C)[C@@]1(C)CC3,94.1%
2,O=C(O)c1ccccc1Nc1ccccc1,116%
3,N=C1C=CC(=C(c2ccc(N)cc2)c2ccc(N)cc2)C=C1,82.5%
4,Clc1ccc(COC(Cn2ccnc2)c2ccc(Cl)cc2Cl)c(Cl)c1 (stereo not drawn),99%
5,Cc1cc(=O)n(-c2ccccc2)n1C,106%
6,O=C(O)c1cc(O)c2c(c1)[C@@H]([C@H]1c3cc(C(=O)O)cc(O)c3C(=O)c3c(O[C@@H]4O[C@H](CO)[C@@H](O)[C@H](O)[C@H]4O)cccc31)c1cccc(O[C@@H]3O[C@H](CO)[C@@H](O)[C@H](O)[C@H]3O)c1C2=O,110%
7,NC12CC3CC(CC(C3)C1)C2,98.7%
8,CN1CC(=O)NC1=N,104%
9,O=C(Cc1ccc(-c2ccc(OCCN3CCOCC3)cc2)cn1)NCc1ccccc1,8.82%
10,Nc1ncn([C@H]2C[C@H](O)[C@@H](CO)O2)c(=O)n1 [Decitabine],41.3%
11,NCCCCNCCCN,92.8%
12,CC(=O)N(O)CCCCCNC(=O)CCC(=O)N(O)CCCCCNC(=O)CCC(=O)N(O)CCCCCN,97.1%
13,C=CC(C)(O)CCC1C(=C)CC(O)C2C(C)(C)CCCC12C (stereo not drawn),105%
14,CCNC(=O)CC[C@H](N)C(=O)O,92.2%
15,CCN[C@H]1C[C@H](C)S(=O)(=O)c2sc(S(N)(=O)=O)cc21 [Dorzolamide HCL],104%
16,CC(C)/N=c1\cc2n(-c3ccc(Cl)cc3)c3ccccc3nc-2cc1Nc1ccc(Cl)cc1,66.1%
17,C[C@@H]1[C@H](O)[C@@H](C)/C=C/C=C/C=C/C=C/C=C/C=C/C=C/[C@H](O[C@@H]2O[C@H](C)[C@@H](O)[C@H](N)[C@@H]2O)C[C@@H]2O[C@](O)(C[C@@H](O)C[C@@H](O)[C@H](O)CC[C@@H](O)C[C@@H](O)CC(=O)O[C@H]1C)C[C@H](O)[C@H]2C(=O)O,97.1%
18,CO[C@@]1(NC(=O)CSCC#N)C(=O)N2C(C(=O)O)=C(CSc3nnnn3C)CS[C@@H]21,102%
19,CCOC(=O)C(C)(C)Oc1ccc(Cl)cc1,97.2%
20,CN1CCc2cccc3c2[C@H]1Cc1ccc(O)c(O)c1-3,97.1%
21,C[C@H](NC(=O)Cc1cc(F)cc(F)c1)C(=O)N[C@H](C(=O)OC(C)(C)C)c1ccccc1,76.1%
22,CCC(NC(C)C)C(O)c1ccc(O)c(O)c1 (stereo not drawn),72.7%

row,Structure (SMILES),cell viability
1,CCC(Cc1c(I)cc(I)c(N)c1I)C(=O)O (stereo not drawn),101%
2,C[C@]12CC[C@@H]3c4ccc(O)cc4CC[C@H]3[C@@H]1CC[C@@H]2OC(=O)CCC1CCCC1,97.7%
3,"Nc1ccccc1NC(=O)c1ccc(CNC(=O)OCc2cccnc2)cc1 [Entinostat (MS-275, SNDX-275)]",12.6%
4,NC1(C(=O)O)CCC1,102%
5,CC(=O)O[C@H]1CC[C@]2(C)C(C[C@@H](OC(C)=O)[C@]3(C)C4=CC(=O)O[C@H](c5ccoc5)[C@@]4(C)CCC23)C1(C)C (stereo partly drawn) [3-DEOXO-3beta-ACETOXYDEOXYDIHYDROGEDUNIN],92.3%
6,N=C(N)NC(=O)c1nc(Cl)c(N)nc1N,94.6%
7,CCCCOC(=O)c1ccc(N)cc1,91.5%
8,CCCCC1=NC2(CCCC2)C(=O)N1Cc1ccc(-c2ccccc2-c2nnn[nH]2)cc1,96.6%
9,C[C@H]1COC2=C1C(=O)C(=O)c1c2ccc2c1CCCC2(C)C,97.7%
10,CN(C)CC[C@H](CSc1ccccc1)Nc1ccc(S(=O)(=O)NC(=O)c2ccc(N3CCN(Cc4ccccc4-c4ccc(Cl)cc4)CC3)cc2)cc1[N+](=O)[O-],32.3%
11,CNS(=O)(=O)Cc1ccc2[nH]cc(CCN(C)C)c2c1,101%
12,CN[C@H](CC(C)C)C(=O)N[C@H]1C(=O)N[C@@H](CC(N)=O)C(=O)N[C@H]2C(=O)N[C@H]3C(=O)N[C@H](C(=O)N[C@H](C(=O)O)c4cc(O)cc(O)c4-c4cc3ccc4O)[C@H](O)c3ccc(c(Cl)c3)Oc3cc2cc(c3O[C@@H]2O[C@H](CO)[C@@H](O)[C@H](O)[C@H]2O[C@H]2C[C@](C)(N)[C@H](O)[C@H](C)O2)Oc2ccc(cc2Cl)[C@H]1O,90.6%
13,NS(=O)(=O)c1cc2c(cc1Cl)N=CNS2(=O)=O,103%
14,CCOC(=O)[C@H](CCc1ccccc1)N[C@@H](C)C(=O)N1[C@H](C(=O)O)C[C@@H]2CCC[C@@H]21,90.1%
15,CCC(CCC(C)C1CCC2C3CCC4CC(O)CCC4(C)C3CCC12C)C(C)C (stereo not drawn),89.6%
16,C=NC(C(=O)NC1C(=O)N2C1SC(C)(C)C2C(=O)O)c1ccccc1 (stereo not drawn),92.6%
17,CC1=CC2C(C(C)C)CCC(C)(O)C2CC1 (stereo not drawn),104%
18,COc1ccc2ccc(=O)oc2c1,97.3%
19,NS(=O)(=O)c1cc(C(=O)O)c(NCc2ccco2)cc1Cl,95.1%
20,O=C(O)c1cc(=O)c2ccccc2o1,94%
21,CC(=O)CC(=O)CCC(=O)O,96.2%
22,COc1ccc2oc(-c3ccccc3)c(OC)c(=O)c2c1,98.7%

# Part of the list above, bar-delimited.
row | Structure (SMILES) | cell viability
1 | CCC(Cc1c(I)cc(I)c(N)c1I)C(=O)O (stereo not drawn) | 101%
15 | CCC(CCC(C)C1CCC2C3CCC4CC(O)CCC4(C)C3CCC12C)C(C)C (stereo not drawn) | 89.6%
19 | NS(=O)(=O)c1cc(C(=O)O)c(NCc2ccco2)cc1Cl | 95.1%
22 | COc1ccc2oc(-c3ccccc3)c(OC)c(=O)c2c1 | 98.7%

# Source: the supplement of paper PMC11150407
